Measurements published in the supplement of paper PMC11732987, “Enantioselective OTUD7B fragment discovery through chemoproteomics screening and high-throughput optimisation” (Communications Chemistry, 2025).
The other results are listed elsewhere or left out. The data scatter; read single values as rough.

Chains of the proteins cited; added tags and fusions are not shown. Lines headed by an entry give the natural chain unless they say otherwise; changes in a name come on top. Residues count along the entry.
UniProt Q8NC56: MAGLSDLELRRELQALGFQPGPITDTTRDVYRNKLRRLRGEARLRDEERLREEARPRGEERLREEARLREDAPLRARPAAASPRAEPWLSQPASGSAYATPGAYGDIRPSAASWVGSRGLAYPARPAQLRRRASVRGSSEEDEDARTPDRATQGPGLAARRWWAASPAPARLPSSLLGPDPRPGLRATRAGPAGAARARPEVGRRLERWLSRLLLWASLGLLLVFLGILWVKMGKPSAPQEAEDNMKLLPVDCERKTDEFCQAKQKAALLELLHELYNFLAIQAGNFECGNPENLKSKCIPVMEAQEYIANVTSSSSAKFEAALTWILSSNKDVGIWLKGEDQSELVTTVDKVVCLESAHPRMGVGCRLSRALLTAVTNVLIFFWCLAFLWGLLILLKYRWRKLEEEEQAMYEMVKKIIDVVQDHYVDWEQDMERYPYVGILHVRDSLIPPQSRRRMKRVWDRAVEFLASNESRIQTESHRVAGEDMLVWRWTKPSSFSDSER
UniProt P53667: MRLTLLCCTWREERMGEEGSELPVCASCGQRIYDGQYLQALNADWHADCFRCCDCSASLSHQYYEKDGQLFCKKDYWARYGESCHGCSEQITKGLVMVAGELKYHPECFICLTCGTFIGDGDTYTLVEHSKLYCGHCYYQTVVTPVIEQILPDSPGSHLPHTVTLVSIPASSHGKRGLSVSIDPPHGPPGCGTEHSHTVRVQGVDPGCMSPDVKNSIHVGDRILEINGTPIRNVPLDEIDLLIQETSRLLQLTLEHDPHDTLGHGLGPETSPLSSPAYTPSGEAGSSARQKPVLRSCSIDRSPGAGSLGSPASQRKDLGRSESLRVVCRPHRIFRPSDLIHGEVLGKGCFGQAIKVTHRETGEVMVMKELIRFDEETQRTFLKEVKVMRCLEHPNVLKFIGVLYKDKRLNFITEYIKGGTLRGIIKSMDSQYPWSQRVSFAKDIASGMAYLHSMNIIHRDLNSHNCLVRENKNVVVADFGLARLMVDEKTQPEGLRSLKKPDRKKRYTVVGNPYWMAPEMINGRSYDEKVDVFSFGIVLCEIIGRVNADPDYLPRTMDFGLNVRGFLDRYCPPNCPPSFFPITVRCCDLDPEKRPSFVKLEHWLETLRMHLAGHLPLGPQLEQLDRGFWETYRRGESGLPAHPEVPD
UniProt Q6UWP7: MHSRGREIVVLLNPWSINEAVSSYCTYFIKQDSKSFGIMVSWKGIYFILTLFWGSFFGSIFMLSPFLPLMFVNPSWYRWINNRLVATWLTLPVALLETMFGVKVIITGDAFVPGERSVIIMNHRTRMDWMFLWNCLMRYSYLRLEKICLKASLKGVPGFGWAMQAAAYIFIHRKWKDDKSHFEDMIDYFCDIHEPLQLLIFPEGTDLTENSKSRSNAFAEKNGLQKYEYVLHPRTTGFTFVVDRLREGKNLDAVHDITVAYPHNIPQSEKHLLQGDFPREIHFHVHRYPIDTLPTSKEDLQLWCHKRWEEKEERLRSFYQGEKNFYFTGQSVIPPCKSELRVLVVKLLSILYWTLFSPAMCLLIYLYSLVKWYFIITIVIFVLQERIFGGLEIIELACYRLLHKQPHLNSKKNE
UniProt Q9UGP4: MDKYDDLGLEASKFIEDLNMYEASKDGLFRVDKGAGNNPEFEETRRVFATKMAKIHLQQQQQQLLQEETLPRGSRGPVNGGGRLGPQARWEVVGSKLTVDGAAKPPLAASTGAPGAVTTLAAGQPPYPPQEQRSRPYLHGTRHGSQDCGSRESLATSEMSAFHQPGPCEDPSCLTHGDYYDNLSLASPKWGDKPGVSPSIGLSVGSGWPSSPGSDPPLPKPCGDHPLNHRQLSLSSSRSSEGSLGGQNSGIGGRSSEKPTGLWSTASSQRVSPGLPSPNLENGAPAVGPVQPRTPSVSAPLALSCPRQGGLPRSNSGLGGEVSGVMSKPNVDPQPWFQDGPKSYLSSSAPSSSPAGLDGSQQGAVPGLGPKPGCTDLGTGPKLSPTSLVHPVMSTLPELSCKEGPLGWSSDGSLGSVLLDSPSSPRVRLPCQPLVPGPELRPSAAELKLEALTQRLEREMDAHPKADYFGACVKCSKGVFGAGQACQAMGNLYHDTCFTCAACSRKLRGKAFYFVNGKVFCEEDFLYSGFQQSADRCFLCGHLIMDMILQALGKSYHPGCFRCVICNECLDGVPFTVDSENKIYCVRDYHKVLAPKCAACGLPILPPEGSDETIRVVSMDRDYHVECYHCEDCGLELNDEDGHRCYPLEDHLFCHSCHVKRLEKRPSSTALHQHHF
UniProt Q96EM0: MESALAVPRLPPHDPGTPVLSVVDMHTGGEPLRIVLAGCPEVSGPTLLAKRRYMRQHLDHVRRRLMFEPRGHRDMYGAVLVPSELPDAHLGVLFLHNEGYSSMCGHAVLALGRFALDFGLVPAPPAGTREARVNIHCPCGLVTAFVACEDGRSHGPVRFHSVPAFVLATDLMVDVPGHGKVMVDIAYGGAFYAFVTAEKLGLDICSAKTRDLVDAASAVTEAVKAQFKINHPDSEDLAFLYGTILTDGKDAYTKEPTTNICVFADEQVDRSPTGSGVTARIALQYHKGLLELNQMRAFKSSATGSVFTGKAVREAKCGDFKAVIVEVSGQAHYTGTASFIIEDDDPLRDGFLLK
UniProt Q7L5N7, 206-226: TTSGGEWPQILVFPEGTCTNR
UniProt Q03252: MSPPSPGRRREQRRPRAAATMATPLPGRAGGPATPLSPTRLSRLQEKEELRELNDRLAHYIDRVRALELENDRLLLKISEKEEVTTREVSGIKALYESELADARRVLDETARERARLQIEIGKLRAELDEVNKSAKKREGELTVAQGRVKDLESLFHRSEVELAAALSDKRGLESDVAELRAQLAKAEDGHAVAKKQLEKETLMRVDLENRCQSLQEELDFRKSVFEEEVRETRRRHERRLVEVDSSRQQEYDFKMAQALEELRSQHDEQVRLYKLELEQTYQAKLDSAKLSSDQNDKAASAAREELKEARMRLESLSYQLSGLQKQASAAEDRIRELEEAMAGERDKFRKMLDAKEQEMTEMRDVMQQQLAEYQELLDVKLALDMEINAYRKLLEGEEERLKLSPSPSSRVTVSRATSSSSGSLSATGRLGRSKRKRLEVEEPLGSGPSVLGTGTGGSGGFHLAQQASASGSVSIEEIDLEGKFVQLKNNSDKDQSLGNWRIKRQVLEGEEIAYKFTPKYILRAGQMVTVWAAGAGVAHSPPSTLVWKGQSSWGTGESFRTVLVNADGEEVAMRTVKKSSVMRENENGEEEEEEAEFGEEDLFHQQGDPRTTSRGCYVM
UniProt Q15334: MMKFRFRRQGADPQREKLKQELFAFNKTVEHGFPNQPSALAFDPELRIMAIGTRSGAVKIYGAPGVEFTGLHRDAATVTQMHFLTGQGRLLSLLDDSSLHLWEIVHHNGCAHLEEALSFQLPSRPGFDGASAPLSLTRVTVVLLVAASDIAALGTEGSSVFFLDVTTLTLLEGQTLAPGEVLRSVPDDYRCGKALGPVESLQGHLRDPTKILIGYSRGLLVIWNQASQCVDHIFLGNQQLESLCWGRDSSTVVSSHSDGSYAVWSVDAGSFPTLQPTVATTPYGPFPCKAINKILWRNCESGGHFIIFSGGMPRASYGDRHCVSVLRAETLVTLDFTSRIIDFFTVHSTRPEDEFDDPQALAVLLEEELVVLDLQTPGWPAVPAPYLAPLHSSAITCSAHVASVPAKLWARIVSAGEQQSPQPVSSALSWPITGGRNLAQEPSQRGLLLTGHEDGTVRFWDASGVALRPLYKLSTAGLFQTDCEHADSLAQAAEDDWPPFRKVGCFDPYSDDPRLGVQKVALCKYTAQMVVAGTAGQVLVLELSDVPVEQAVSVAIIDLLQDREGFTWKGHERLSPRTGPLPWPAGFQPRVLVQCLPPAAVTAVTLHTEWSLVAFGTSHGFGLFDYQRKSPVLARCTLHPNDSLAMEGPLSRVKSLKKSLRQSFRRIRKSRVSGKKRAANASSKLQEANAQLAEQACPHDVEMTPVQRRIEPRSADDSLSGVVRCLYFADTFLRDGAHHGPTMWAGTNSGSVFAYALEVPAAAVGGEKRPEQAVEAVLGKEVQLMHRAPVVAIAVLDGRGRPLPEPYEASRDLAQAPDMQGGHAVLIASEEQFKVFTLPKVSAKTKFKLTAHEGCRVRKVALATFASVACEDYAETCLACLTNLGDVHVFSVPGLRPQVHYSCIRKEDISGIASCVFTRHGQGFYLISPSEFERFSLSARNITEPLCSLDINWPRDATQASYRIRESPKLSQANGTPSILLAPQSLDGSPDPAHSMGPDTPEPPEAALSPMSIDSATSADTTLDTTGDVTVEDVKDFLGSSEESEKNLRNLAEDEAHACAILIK
UniProt Q9Y4W2: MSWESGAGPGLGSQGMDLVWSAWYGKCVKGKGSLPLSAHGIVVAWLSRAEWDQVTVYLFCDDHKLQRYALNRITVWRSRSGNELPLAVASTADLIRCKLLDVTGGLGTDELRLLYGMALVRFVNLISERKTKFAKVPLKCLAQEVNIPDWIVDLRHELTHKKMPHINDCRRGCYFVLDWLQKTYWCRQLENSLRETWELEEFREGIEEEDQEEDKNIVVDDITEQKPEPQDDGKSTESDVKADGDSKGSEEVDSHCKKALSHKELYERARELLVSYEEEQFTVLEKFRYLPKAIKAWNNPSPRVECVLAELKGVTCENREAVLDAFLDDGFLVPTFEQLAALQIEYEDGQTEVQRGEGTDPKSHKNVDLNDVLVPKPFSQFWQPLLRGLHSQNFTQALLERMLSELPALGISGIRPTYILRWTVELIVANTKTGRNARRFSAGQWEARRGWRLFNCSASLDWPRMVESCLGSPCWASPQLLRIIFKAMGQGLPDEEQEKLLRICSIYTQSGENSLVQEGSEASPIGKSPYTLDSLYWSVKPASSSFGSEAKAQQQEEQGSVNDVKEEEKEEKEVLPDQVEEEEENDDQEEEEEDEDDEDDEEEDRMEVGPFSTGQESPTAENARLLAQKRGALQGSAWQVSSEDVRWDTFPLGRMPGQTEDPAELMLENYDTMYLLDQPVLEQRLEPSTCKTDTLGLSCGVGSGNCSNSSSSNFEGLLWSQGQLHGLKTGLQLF
UniProt P48059: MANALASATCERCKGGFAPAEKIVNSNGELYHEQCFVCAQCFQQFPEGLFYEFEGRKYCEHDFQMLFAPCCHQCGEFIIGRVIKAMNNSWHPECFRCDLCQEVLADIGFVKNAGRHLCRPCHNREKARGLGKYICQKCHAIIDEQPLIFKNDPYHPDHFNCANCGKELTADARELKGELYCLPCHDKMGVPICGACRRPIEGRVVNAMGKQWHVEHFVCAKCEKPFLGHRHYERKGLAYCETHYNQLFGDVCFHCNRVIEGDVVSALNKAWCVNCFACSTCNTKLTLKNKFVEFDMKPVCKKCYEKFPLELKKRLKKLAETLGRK
UniProt Q15031: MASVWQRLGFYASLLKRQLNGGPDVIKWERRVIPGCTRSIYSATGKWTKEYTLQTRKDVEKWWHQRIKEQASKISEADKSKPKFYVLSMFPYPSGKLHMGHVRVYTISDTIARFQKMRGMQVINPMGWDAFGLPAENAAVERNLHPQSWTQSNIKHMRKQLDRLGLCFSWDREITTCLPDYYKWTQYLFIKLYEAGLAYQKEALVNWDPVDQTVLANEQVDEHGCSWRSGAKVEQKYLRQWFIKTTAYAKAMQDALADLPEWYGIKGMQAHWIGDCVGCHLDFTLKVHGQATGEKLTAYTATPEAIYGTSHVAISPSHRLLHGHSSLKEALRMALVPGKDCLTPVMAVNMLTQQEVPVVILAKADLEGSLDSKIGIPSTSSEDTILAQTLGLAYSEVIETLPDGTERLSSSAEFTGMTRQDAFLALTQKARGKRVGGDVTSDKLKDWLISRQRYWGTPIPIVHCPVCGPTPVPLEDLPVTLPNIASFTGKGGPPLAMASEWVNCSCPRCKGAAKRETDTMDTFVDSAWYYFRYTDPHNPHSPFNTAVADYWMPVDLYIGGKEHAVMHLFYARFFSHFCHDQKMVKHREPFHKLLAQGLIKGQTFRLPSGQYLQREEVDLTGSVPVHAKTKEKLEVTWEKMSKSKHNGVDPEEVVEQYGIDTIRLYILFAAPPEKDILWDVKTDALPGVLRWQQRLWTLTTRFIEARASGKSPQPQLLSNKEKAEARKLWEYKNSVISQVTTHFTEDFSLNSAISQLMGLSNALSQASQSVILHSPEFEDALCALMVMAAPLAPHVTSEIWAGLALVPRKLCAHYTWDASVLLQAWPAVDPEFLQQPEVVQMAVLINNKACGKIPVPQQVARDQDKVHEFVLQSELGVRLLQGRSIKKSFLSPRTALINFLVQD

Each target was assayed with ClCC(=O)N[C@H]1CCCc2ccccc12 (assay: log2 mean competition ratio of IA-DTB cysteine labelling (DMSO/compound) (log2 ratio); higher = stronger cysteine engagement by compound). Settings: 50 µM; treatment time: 4 h; cell line lysate: HEK293T.
Procedure: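 IA-DTB competitive cysteine chemoproteomics in HEK293T RIPA lysate. Lysates were treated with compound 29 or 30 at 50 or 200 µM for 4 h, then IA-DTB (500 µM, 1 h), trypsin-digested, NeutrAvidin-enriched and analysed by diaPASEF. Competition ratio = intensity DMSO / intensity compound (n=4 treated, n=64 DMSO); binding: mean log2 CR ≥ 1 and p ≤ 0.05 plus QC filters. Target is the cysteine site.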

Target	log2 mean competition ratio
LARS1 C554	-0.099
LEMD2 C355 (UniProt Q8NC56)	0.314
LIMK1 C208 (UniProt P53667)	0.191
LCLAT1 C336 (UniProt Q6UWP7)	0.445
LONP1 C909 (UniProt P36776)	-0.595
LIMD1 C472 (UniProt Q9UGP4)	0.623
L3HYPDH C205 (UniProt Q96EM0)	-0.274
LPCAT2 C223 (UniProt Q7L5N7)	0.204
KPNB1 C543	0.167
LRPPRC C1043	0.804
LARS1 C573	0.38
LMNB2 C212 (UniProt Q03252)	-0.802
KNL1 C774 (UniProt Q8NG31)	0.211
LLGL1 C855 (UniProt Q15334)	0.366
LRCH2 C730	-0.428
LAS1L C690 (UniProt Q9Y4W2)	0.0326
KMT2D C4424 (UniProt O14686)	0.316
KLC3 C230 (UniProt Q6P597)	0.345
LIMS1 C94 (UniProt P48059)	0.245
LARS2 C578 (UniProt Q15031)	0.183

Same assay, conditions: 200 µM; treatment time: 4 h; cell line lysate: HEK293T

Target	log2 mean competition ratio
LARS1 C554	0.288
LEMD2 C355 (UniProt Q8NC56)	-0.383
LIMK1 C208 (UniProt P53667)	-0.0312
LCLAT1 C336 (UniProt Q6UWP7)	0.221
LONP1 C909 (UniProt P36776)	-0.314
LIMD1 C472 (UniProt Q9UGP4)	-0.0277
L3HYPDH C205 (UniProt Q96EM0)	-0.0722
LPCAT2 C223 (UniProt Q7L5N7)	0.0291
KPNB1 C543	-0.113
LRPPRC C1043	-0.0197
LARS1 C573	0.295
LMNB2 C212 (UniProt Q03252)	0.083
KNL1 C774 (UniProt Q8NG31)	0.0687
LLGL1 C855 (UniProt Q15334)	0.11
LRCH2 C730	0.196
LAS1L C690 (UniProt Q9Y4W2)	0.213
KMT2D C4424 (UniProt O14686)	-0.264
KLC3 C230 (UniProt Q6P597)	-0.00335
LIMS1 C94 (UniProt P48059)	0.0235
LARS2 C578 (UniProt Q15031)	-0.0994
